From article PMC7446834
These are yes or no findings as the source states them, for the method shown. Binding seen in cells or lysates may run through a third protein. Some entries that bind do so weakly or less than the wild type.

Chains of the proteins cited; added tags and fusions are not shown.
UniProt P45983: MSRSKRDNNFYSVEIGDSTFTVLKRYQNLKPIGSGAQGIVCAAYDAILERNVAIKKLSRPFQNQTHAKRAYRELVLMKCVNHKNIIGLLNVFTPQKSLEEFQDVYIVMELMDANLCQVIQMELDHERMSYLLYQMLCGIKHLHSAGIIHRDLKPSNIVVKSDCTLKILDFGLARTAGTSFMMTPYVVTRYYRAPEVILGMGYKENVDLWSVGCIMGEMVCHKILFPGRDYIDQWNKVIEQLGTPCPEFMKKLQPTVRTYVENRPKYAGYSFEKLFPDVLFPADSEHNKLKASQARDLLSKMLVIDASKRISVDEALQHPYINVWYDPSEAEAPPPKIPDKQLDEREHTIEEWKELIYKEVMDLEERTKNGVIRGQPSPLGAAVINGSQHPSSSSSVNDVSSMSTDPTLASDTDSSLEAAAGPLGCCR

Tests used:
[1] = target: c-Jun N-terminal kinase 1 (JNK1, of JNK1/2) (human (endogenous in HUVECs)) (UniProt P45983); assay: co-IP; endogenous proteins in lysates of HUVECs transduced with lentiviral vIRF1 or control pHAGE; JNK1/2 immunoprecipitated; IP lysis/wash buffer with protein inhibitor cocktail; beads washed, eluted, Western blot
[2] = target: c-Jun N-terminal kinase 2 (JNK2, of JNK1/2) (human (endogenous in HUVECs)) (UniProt P45984); assay: as above

| binding [1] | binding [2] | Binder |
| --- | --- | --- |
| binds | binds | Sperm associated antigen 9 (SPAG9) (protein, UniProt O60271 1-1321) MELEDGVVYQEEPGGSGAVMSERVSGLAGSIYREFERLIGRYDEEVVKELMPLVVAVLENLDSVFAQDQEHQVELELLRDDNEQLITQYEREKALRKHAEEKFIEFEDSQEQEKKDLQTRVESLESQTRQLELKAKNYADQISRLEEREAELKKEYNALHQRHTEMIHNYMEHLERTKLHQLSGSDQLESTAHSRIRKERPISLGIFPLPAGDGLLTPDAQKGGETPGSEQWKFQELSQPRSHTSLKVSNSPEPQKAVEQEDELSDVSQGGSKATTPASTANSDVATIPTDTPLKEENEGFVKVTDAPNKSEISKHIEVQVAQETRNVSTGSAENEEKSEVQAIIESTPELDMDKDLSGYKGSSTPTKGIENKAFDRNTESLFEELSSAGSGLIGDVDEGADLLGMGREVENLILENTQLLETKNALNIVKNDLIAKVDELTCEKDVLQGELEAVKQAKLKLEEKNRELEEELRKARAEAEDARQKAKDDDDSDIPTAQRKRFTRVEMARVLMERNQYKERLMELQEAVRWTEMIRASRENPAMQEKKRSSIWQFFSRLFSSSSNTTKKPEPPVNLKYNAPTSHVTPSVKKRSSTLSQLPGDKSKAFDFLSEETEASLASRREQKREQYRQVKAHVQKEDGRVQAFGWSLPQKYKQVTNGQGENKMKNLPVPVYLRPLDEKDTSMKLWCAVGVNLSGGKTRDGGSVVGASVFYKDVAGLDTEGSKQRSASQSSLDKLDQELKEQQKELKNQEELSSLVWICTSTHSATKVLIIDAVQPGNILDSFTVCNSHVLCIASVPGARETDYPAGEDLSESGQVDKASLCGSMTSNSSAETDSLLGGITVVGCSAEGVTGAATSPSTNGASPVMDKPPEMEAENSEVDENVPTAEEATEATEGNAGSAEDTVDISQTGVYTEHVFTDPLGVQIPEDLSPVYQSSNDSDAYKDQISVLPNEQDLVREEAQKMSSLLPTMWLGAQNGCLYVHSSVAQWRKCLHSIKLKDSILSIVHVKGIVLVALADGTLAIFHRGVDGQWDLSNYHLLDLGRPHHSIRCMTVVHDKVWCGYRNKIYVVQPKAMKIEKSFDAHPRKESQVRQLAWVGDGVWVSIRLDSTLRLYHAHTYQHLQDVDIEPYVSKMLGTGKLGFSFVRITALMVSCNRLWVGTGNGVIISIPLTETNKTSGVPGNRPGSVIRVYGDENSDKVTPGTFIPYCSMAHAQLCFHGHRDAVKFFVAVPGQVISPQSSSSGTDLTGDKAGPSAQEPGSQTPLKSMLVISGGEGYIDFRMGDEGGESELLGEDLPLEPSVTKAERSHLIVWQVMYGNE |
| binds | binds | Mitogen-activated protein kinase kinase 4 (MKK4) (enzyme, UniProt P45985 1-399) MAAPSPSGGGGSGGGSGSGTPGPVGSPAPGHPAVSSMQGKRKALKLNFANPPFKSTARFTLNPNPTGVQNPHIERLRTHSIESSGKLKISPEQHWDFTAEDLKDLGEIGRGAYGSVNKMVHKPSGQIMAVKRIRSTVDEKEQKQLLMDLDVVMRSSDCPYIVQFYGALFREGDCWICMELMSTSFDKFYKYVYSVLDDVIPEEILGKITLATVKALNHLKENLKIIHRDIKPSNILLDRSGNIKLCDFGISGQLVDSIAKTRDAGCRPYMAPERIDPSASRQGYDVRSDVWSLGITLYELATGRFPYPKWNSVFDQLTQVVKGDPPQLSNSEEREFSPSFINFVNLCLTKDESKRPKYKELLKHPFILMYEERAVEVACYVCKILDQMPATPSSPMYVD |
